# PubChem BioAssay AID1224830 – NIAID, 2016
# Test: 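Regulators of TLR4 signalling towards TNF-alpha in macrophage-like cells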 (primary screen)
# Cells: human THP-1 monocytic leukaemia cells, TNF dual-luciferase reporter clone, PMA-differentiated to macrophage-like cells
# Reagent: siRNA pool against human genes, 50 nM
# Timing: LPS for 4 h, given about 3 days after siRNA transfection
# Conditions: bacterial LPS (TLR4 ligand), 10 ng/ml
# Measurement: 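Ratio of firefly to renilla light, scaled to the plate median and expressed as a robust z-score per replicate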
# Scale: TNF reporter robust z-score: higher = stronger TNF reporter response to LPS
# Hit rule: 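a well is active when its z-score exceeds 2.8 or falls below -1.5; control wells carry no call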
# This is an unselected part of about 18,000 reagents tested. About 2,900 of all reagents (16%) were called active. 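Calls are made per well; low scores hint the gene aids the LPS response, high scores that it dampens it.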 Repeated entries: four replicate wells of each siRNA pool.
Target gene,TNF reporter robust z-score,Call
CACNB1 (calcium voltage-gated channel auxiliary subunit beta 1),-0.38,inactive
CACNB1 (calcium voltage-gated channel auxiliary subunit beta 1),1.83,inactive
CACNB1 (calcium voltage-gated channel auxiliary subunit beta 1),0.26,inactive
CACNB1 (calcium voltage-gated channel auxiliary subunit beta 1),0.84,inactive
TTN (titin),-1.15,inactive
TTN (titin),1.09,inactive
TTN (titin),0.27,inactive
TTN (titin),-0.52,inactive
CDC14B (cell division cycle 14B),0.36,inactive
CDC14B (cell division cycle 14B),0.29,inactive
CDC14B (cell division cycle 14B),1.57,inactive
CDC14B (cell division cycle 14B),-1.01,inactive
PCDHA5 (protocadherin alpha 5),-0.56,inactive
PCDHA5 (protocadherin alpha 5),-1.06,inactive
PCDHA5 (protocadherin alpha 5),-0.14,inactive
PCDHA5 (protocadherin alpha 5),0.49,inactive
IFT25 (intraflagellar transport 25),-0.5,inactive
IFT25 (intraflagellar transport 25),0.17,inactive
IFT25 (intraflagellar transport 25),0.27,inactive
IFT25 (intraflagellar transport 25),1.34,inactive
BAAT (bile acid-CoA:amino acid N-acyltransferase),-1.02,inactive
BAAT (bile acid-CoA:amino acid N-acyltransferase),-0.24,inactive
BAAT (bile acid-CoA:amino acid N-acyltransferase),-0.62,inactive
BAAT (bile acid-CoA:amino acid N-acyltransferase),-1.04,inactive
MYL2 (myosin light chain 2),0.35,inactive
MYL2 (myosin light chain 2),0.46,inactive
MYL2 (myosin light chain 2),-0.49,inactive
MYL2 (myosin light chain 2),-0.23,inactive
SLC13A5,0.79,inactive
SLC13A5,0.58,inactive
SLC13A5,0.87,inactive
SLC13A5,0.47,inactive
ATG9A (autophagy related 9A),-1.13,inactive
ATG9A (autophagy related 9A),-0.1,inactive
ATG9A (autophagy related 9A),0.58,inactive
ATG9A (autophagy related 9A),0.72,inactive
GPR42 (G protein-coupled receptor 42),-0.79,inactive
GPR42 (G protein-coupled receptor 42),0.25,inactive
GPR42 (G protein-coupled receptor 42),1.52,inactive
GPR42 (G protein-coupled receptor 42),1.4,inactive

Quoted from above, 5 entries:
Target gene,TNF reporter robust z-score,Call
SLC13A5,0.79,inactive
SLC13A5,0.58,inactive
SLC13A5,0.87,inactive
SLC13A5,0.47,inactive
ATG9A (autophagy related 9A),-1.13,inactive

Further entries follow.
Target gene,TNF reporter robust z-score,Call
DNPEP (aspartyl aminopeptidase),-0.91,inactive
DNPEP (aspartyl aminopeptidase),-1.57,active
DNPEP (aspartyl aminopeptidase),-0.6,inactive
DNPEP (aspartyl aminopeptidase),2.1,inactive
OR52L1 (olfactory receptor family 52 subfamily L member 1),-0.16,inactive
OR52L1 (olfactory receptor family 52 subfamily L member 1),0.22,inactive
OR52L1 (olfactory receptor family 52 subfamily L member 1),0.03,inactive
OR52L1 (olfactory receptor family 52 subfamily L member 1),0.3,inactive
"B3GALT1 (beta-1,3-galactosyltransferase 1)",-0.62,inactive
"B3GALT1 (beta-1,3-galactosyltransferase 1)",0.25,inactive
"B3GALT1 (beta-1,3-galactosyltransferase 1)",-0.15,inactive
"B3GALT1 (beta-1,3-galactosyltransferase 1)",0.52,inactive
ZC4H2 (zinc finger C4H2-type containing),0.27,inactive
ZC4H2 (zinc finger C4H2-type containing),-0.05,inactive
ZC4H2 (zinc finger C4H2-type containing),-0.36,inactive
ZC4H2 (zinc finger C4H2-type containing),-0.22,inactive
IL2RG (interleukin 2 receptor subunit gamma),0.39,inactive
IL2RG (interleukin 2 receptor subunit gamma),0.98,inactive
IL2RG (interleukin 2 receptor subunit gamma),1.53,inactive
IL2RG (interleukin 2 receptor subunit gamma),1.1,inactive
ZDHHC1 (zDHHC palmitoyltransferase 1),-1.29,inactive
ZDHHC1 (zDHHC palmitoyltransferase 1),-1.57,active
ZDHHC1 (zDHHC palmitoyltransferase 1),-1.96,active
ZDHHC1 (zDHHC palmitoyltransferase 1),-0.8,inactive
AK1 (adenylate kinase 1),-1.23,inactive
AK1 (adenylate kinase 1),1.11,inactive
AK1 (adenylate kinase 1),0.55,inactive
AK1 (adenylate kinase 1),1.47,inactive
MRE11 (MRE11 double strand break repair nuclease),-0.29,inactive
MRE11 (MRE11 double strand break repair nuclease),0.43,inactive
MRE11 (MRE11 double strand break repair nuclease),-0.66,inactive
MRE11 (MRE11 double strand break repair nuclease),0.33,inactive
DYRK4 (dual specificity tyrosine phosphorylation regulated kinase 4),-1.76,active
DYRK4 (dual specificity tyrosine phosphorylation regulated kinase 4),-0.7,inactive
DYRK4 (dual specificity tyrosine phosphorylation regulated kinase 4),-0.68,inactive
DYRK4 (dual specificity tyrosine phosphorylation regulated kinase 4),-0.99,inactive
